From paper PMC6687821, “Brain-targeted drug delivery by manipulating protein corona functions” (Nature Communications, 2019)
Results are given in words; binding and its absence hold for the method and conditions named. For part of these data: In cells and extracts the contact can be indirect. Some binding calls cover weakened binding; strength is not graded here. One block for each molecule: values may come before it.

Amino acid sequences for entries named in this document (tags omitted). Residues count along the entry.
UniProt P02649, residues 19-317: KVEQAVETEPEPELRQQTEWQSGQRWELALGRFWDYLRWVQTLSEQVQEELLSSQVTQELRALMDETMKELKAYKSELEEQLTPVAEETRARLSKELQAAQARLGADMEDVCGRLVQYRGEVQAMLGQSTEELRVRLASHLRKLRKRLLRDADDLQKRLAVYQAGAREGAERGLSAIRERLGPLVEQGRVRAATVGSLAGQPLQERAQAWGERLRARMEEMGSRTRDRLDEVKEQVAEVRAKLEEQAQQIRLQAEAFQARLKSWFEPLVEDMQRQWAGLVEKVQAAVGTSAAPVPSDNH

Legend:
[1] = target: T1, SP (Aβ25-35 with amide form of the C-terminal methionine), thiolated, conjugated as SP-PEG3400-DSPE and shown on liposomes (SP-sLip) or PLGA nanoparticles (SP-PLGA NP); assay: radioligand binding; same experiment as a7, read for the absorption of ApoE from human plasma on SP-sLip (shown only through the I-125 rhLRP1 then bound); only the target purified
T1 sequence (peptide, C-terminal amide (CONH2); N-terminal cysteine conjugated with mal-PEG3400-DSPE): CGSNKGAIIGLM

[2] = substrate: T2, SP (Aβ25-35 with amide form of the C-terminal methionine), thiolated, conjugated as SP-PEG3400-DSPE and shown on liposomes (SP-sLip) or PLGA nanoparticles (SP-PLGA NP); assay: co-sedimentation; in vivo: DiI-labeled SP-sLip injected into the tail vein of BALB/c mice, blood sampled at 1 h, corona isolated by centrifugation at 14k RCF, Western blotting for ApoJ, ApoE, ApoA1; plain sLip as control; only the target purified
T2 sequence (peptide, C-terminal amide (CONH2); N-terminal cysteine conjugated with mal-PEG3400-DSPE): CGSNKGAIIGLM

[3] = substrate: T2, ; assay: co-sedimentation; SP-sLip (100 μL, 10 mg/mL) in PBS with 100 μL mouse plasma at 37 °C for 1 h (or different periods); corona isolated at 14k RCF, three washes with cold PBS, SDS-PAGE, silver stain; bands identified by nano-LC-MS/MS; plain sLip as control; only the target purified

- binding [1]: binds
Molecule: human plasma ApoE (from UniProt P02649 19-317)

- binding [2]: binds
- binding [3]: binds
B1: mouse plasma ApoE (protein, UniProt P08226 19-311)
chain: EGEPEVTDQLEWQSNQPWEQALNRFWDYLRWVQTLSDQVQEELQSSQVTQELTALMEDTMTEVKAYKKELEEQLGPVAEETRARLGKEVQAAQARLGADMEDLRNRLGQYRNEVHTMLGQSTEEIRARLSTHLRKMRKRLMRDAEDLQKRLAVYKAGAREGAERGVSAIRERLGPLVEQGRQRTANLGAGAAQPLRDRAQAFGDRIRGRLEEVGNQARDRLEEVREHMEEVRSKMEEQTQQIRLQAEIFQARLKGWFEPIVEDMHRQWANLMEKIQASVATNPIITPVAQENQ
